{"source": "PubChem BioAssay AID540276", "about": "(National Center for Advancing Translational Sciences (NCATS), 2011)", "note": "The campaign covered roughly 300,000 compounds. About 5,400 (1.8%) were called active. Inconclusive means that the source gave no clear call. Such entries were picked first, then a sample of the others. Calls come from the whole dose curve; tested in HEK293 cells. A potency beside an inconclusive call is a rough fit, not a confirmed value. Potency is the fitted concentration of half-maximal effect.", "data": [{"test": "qHTS for inhibitors of binding or entry into cells for Marburg Virus", "settings": "Marburg virus pseudotyped entry inhibition, cell reporter; series mostly up to 37.8 µM", "values": [{"smiles": "Cc1cc[n+](C2=C([O-])c3ccccc3C(=O)/C2=N\\S(=O)(=O)c2cccs2)cc1C", "Potency": "inconclusive: 8.91 µM [inhibitor, partial curve, poor fit]"}, {"smiles": "Cc1ccc2nc3c(cc(C#N)c(=O)n3-c3nnc(SCc4ccccc4)s3)c(=O)n2c1", "Potency": "inactive"}, {"smiles": "CN(C)c1ccc(NC2=C(Cl)C(=O)c3ccccc3C2=O)cc1", "Potency": "inconclusive: 0.631 µM [inhibitor, full curve, poor fit]"}, {"smiles": "Cc1cccc(CSc2ncc(Cl)c(C(=O)Nc3nc4ccc(F)cc4s3)n2)c1", "Potency": "inactive"}, {"smiles": "CCC1(CC)NC(=S)NC1=S", "Potency": "inactive"}, {"smiles": "COc1ccccc1C(CNC(=O)COc1ccccc1C)N1CCCC1", "note": "(centres undefined)", "Potency": "inconclusive: 11.2 µM [inhibitor, single point]"}, {"smiles": "Cc1ccsc1C(=O)C1CCCN(CCO)C1", "note": "(centres undefined)", "Potency": "inconclusive: 11.2 µM [activator, single point]"}, {"smiles": "Cc1cc(C)c2c(N)c(S(=O)c3ccc(C(C)(C)C)cc3)sc2n1", "note": "(centres undefined)", "Potency": "inconclusive: 32.6 µM [inhibitor, single point]"}, {"smiles": "COc1ccc(NC(=O)c2cc3c(=O)n4ccccc4nc3n2C)cc1OC", "Potency": "inconclusive: 1.78 µM [inhibitor, partial curve, poor fit]"}, {"smiles": "CC(C)(C)NCc1cc(Br)ccc1OC1CCCC1", "Potency": "active: 23.1 µM"}, {"smiles": "CCN(CC)P(=O)(Nc1ccc([N+](=O)[O-])cc1)c1c(C)nn(CCC#N)c1NC(=O)c1ccc(Cl)cc1Cl", "note": "(centres undefined)", "Potency": "inconclusive: 8.91 µM [inhibitor, partial curve, poor fit]"}, {"smiles": "CCOC(=O)C1CCCN(C(=O)c2cc(Nc3ccc(OC)c(OC)c3)nc3ccccc23)C1", "note": "(centres undefined)", "Potency": "active: 11.2 µM"}, {"smiles": "Cc1nn(C)cc1/C=N/NC(=O)c1ccc2c(c1)OCO2", "Potency": "inactive"}, {"smiles": "CC(=O)c1ccc(NC(=O)COC(=O)c2ccccc2N=Nc2ccc(N(C)C)cc2)cc1", "Potency": "inconclusive: 35.5 µM [inhibitor, single point]"}, {"smiles": "CCN(CC(=O)NC(=O)NC1CCCCC1)Cc1nc2ccccc2c(=O)[nH]1", "Potency": "inactive"}, {"smiles": "CCCCN1C(=O)C(O)(CC(=O)c2ccc(C(C)(C)C)cc2)c2ccccc21", "note": "(centres undefined)", "Potency": "inconclusive: 17.8 µM [inhibitor, single point]"}, {"smiles": "Cc1ccc(NC(=O)/C=C/c2ccc(Cl)cc2)nc1", "Potency": "inactive"}, {"smiles": "CN(C)CC/C=C1/c2cc(F)ccc2CSc2ccc(F)cc21", "Potency": "inconclusive: 29.1 µM [inhibitor, single point]"}, {"smiles": "COc1ccccc1N1CCN(/N=C\\C(Br)=C\\c2ccccc2)CC1", "Potency": "inconclusive: 35.5 µM [activator, single point]"}, {"smiles": "COc1ccccc1NS(=O)(=O)c1ccc(NN=C2CCCC2)c([N+](=O)[O-])c1", "Potency": "inconclusive: 1.78 µM [inhibitor, full curve]"}, {"smiles": "O=S(=O)(c1ccccc1)N(CC1CO1)c1cccc2ccccc12", "note": "(centres undefined)", "Potency": "inconclusive: 8.91 µM [inhibitor, partial curve, poor fit]"}, {"smiles": "OCc1ccccc1SSc1ccccc1CO", "Potency": "inactive"}, {"smiles": "CCOc1ccc(-c2nc3c(c(SCC(=O)N4CCCCC4)n2)Cc2cccc(OC)c2O3)cc1", "Potency": "inactive"}, {"smiles": "CN(C(=O)COC(=O)C12CC3CC(CC(Cl)(C3)C1)C2)c1ccccc1", "Potency": "inconclusive: 0.316 µM [activator, partial curve, poor fit]"}, {"smiles": "CCCCOc1cc(C(=O)NCCN(CC)CC)c2ccccc2n1", "Potency": "active: 10.3 µM"}, {"smiles": "O=C(O)c1ccccc1CSc1nnc2c(n1)[nH]c1ccccc12", "Potency": "inactive"}, {"smiles": "CCC1(CC)Cc2ccccc2-c2nc(CN(C)C)[nH]c(=O)c21", "Potency": "inconclusive: 10 µM [inhibitor, partial curve, poor fit]"}, {"smiles": "CCN(Cc1cccs1)C(=O)CN1CCN(S(=O)(=O)c2ccc3c(c2)OCCCO3)CC1", "Potency": "inactive"}, {"smiles": "Cc1ccc2c(c1)N(CCCC(=O)Nc1cccc(C(F)(F)F)c1)C(=O)CO2", "Potency": "inconclusive: 1.12 µM [inhibitor, full curve, poor fit]"}, {"smiles": "COCCNC(=O)C(c1ccncc1)N(Cc1ccccc1)C(=O)Cn1nnc2ccccc21", "note": "(centres undefined)", "Potency": "inactive"}, {"smiles": "CC(=O)c1cccc(NS(=O)(=O)c2ccc(N/C=C\\C(=O)c3ccc(F)cc3)cc2)c1", "Potency": "inconclusive: 15.8 µM [inhibitor, single point]"}, {"smiles": "CCCc1cc(=O)oc2cc(C)cc(OC(C)C(=O)NCCCn3ccnc3)c12", "note": "(centres undefined)", "Potency": "inconclusive: 3.16 µM [inhibitor, full curve]"}, {"smiles": "COc1cccc(-c2nn(C)c3sc(C(=O)N4CCN(c5ccccn5)CC4)cc23)c1", "Potency": "inconclusive: 17.8 µM [inhibitor, single point]"}, {"smiles": "O=C(CNCc1ccc(Cl)cc1)Nc1cc(S(=O)(=O)N2CCCC2)ccc1Cl", "Potency": "inconclusive: 28.2 µM [inhibitor, single point]"}, {"smiles": "CCOC(=O)C(NC(C)=O)C(=O)Nc1ccc(C)cc1C", "note": "(centres undefined)", "Potency": "inconclusive: 31.6 µM [activator, single point]"}, {"smiles": "CCOC(=O)c1[nH]c2ccccc2c1NC(=O)c1ccc(Br)cc1", "Potency": "inconclusive: 20 µM [activator, single point]"}, {"smiles": "C=C(C(C)=O)C(O)c1cccc(OC)c1", "note": "(centres undefined)", "Potency": "inconclusive: 0.668 µM [inhibitor, single point]"}, {"smiles": "Cc1ccc(NC(=O)COC(=O)Cc2csc(-c3cccc(F)c3)n2)cc1C", "Potency": "inconclusive: 0.891 µM [inhibitor, full curve, poor fit]"}, {"smiles": "COC(=O)NC(NC(=S)Nc1ccccc1OC)C(Cl)(Cl)Cl", "note": "(centres undefined)", "Potency": "inactive"}, {"smiles": "Cc1ccc(-c2nnc(-c3ccccc3)o2)cc1", "Potency": "active: 15.8 µM"}, {"smiles": "COC(=O)c1ccc(C(=O)OC)c(NC(=S)N2CCN(c3ccc(F)cc3)CC2)c1", "Potency": "inconclusive: 6.31 µM [activator, single point]"}, {"smiles": "CN(Cc1ccc(Cl)c(Cl)c1)C(=O)CN1C(=O)NC2(CCCC2)C1=O", "Potency": "inconclusive: 35.5 µM [activator, single point]"}, {"smiles": "Cc1cccc(Nc2nnc(-c3ccc(C)c(S(=O)(=O)NCC4CCCO4)c3)c3ccccc23)c1", "note": "(centres undefined)", "Potency": "inconclusive: 14.1 µM [inhibitor, single point]"}, {"smiles": "CCOC(=O)c1ccc(N2C(=O)c3n[nH]c(-c4ccco4)c3C2c2ccc(O)c(OCC)c2)cc1", "note": "(centres undefined)", "Potency": "active: 7.94 µM"}, {"smiles": "Cc1nc(N)sc1N=Nc1ccc(F)cc1", "Potency": "inconclusive: 3.66 µM [activator, full curve, poor fit]"}, {"smiles": "COC(=O)c1c(C(=O)OC)c2ccccn2c1C(=O)c1ccccc1", "Potency": "inconclusive: 12.6 µM [inhibitor, partial curve, poor fit]"}, {"smiles": "Oc1ccc(N=Nc2ccc3c(c2)OCCO3)c2cccnc12", "Potency": "inconclusive: 7.08 µM [inhibitor, full curve, poor fit]"}, {"smiles": "COc1ccc(/C(O)=C2/C(=O)C(=O)N(CCN3CCOCC3)C2c2ccccn2)cc1OC", "note": "(centres undefined)", "Potency": "inconclusive: 8.91 µM [activator, partial curve]"}, {"smiles": "C=CCn1c(C)cc(C(=O)COc2ccc(C)nc2[N+](=O)[O-])c1C", "Potency": "inconclusive: 35.5 µM [inhibitor, single point]"}, {"smiles": "Cc1ccc(C(=O)Nc2ccccc2C(=O)NC(CC(=O)O)C(=O)O)cc1", "note": "(centres undefined)", "Potency": "inactive"}, {"smiles": "Cc1cccc(-n2c(Cc3ccccc3)nnc2SCc2nc(-c3cccs3)no2)c1", "Potency": "inactive"}, {"smiles": "Cc1cc(C)cc(NC(=S)N(Cc2ccc(Cl)cc2)Cc2ccc(C(=O)O)cc2)c1", "Potency": "inactive"}, {"smiles": "CN(Cc1ccccc1)Cc1cc(=O)oc2ccc3ccccc3c12", "Potency": "inconclusive: 31.5 µM [inhibitor, single point]"}, {"smiles": "CCOc1ccccc1NC(=O)/C=C/c1ccccc1[N+](=O)[O-]", "Potency": "inconclusive: 0.631 µM [activator, partial curve, poor fit]"}, {"smiles": "O=C(CSc1ccc(-c2ccco2)nn1)N1CCCCCC1", "Potency": "inconclusive: 35.5 µM [activator, single point]"}, {"smiles": "COC(=O)c1ccc(NC(=O)CSCc2ccccc2C)cc1", "Potency": "inactive"}, {"smiles": "CCn1c(SCC(=O)NCCc2ccc(OC)c(OC)c2)nc2c1c(=O)n(C)c(=O)n2C", "Potency": "inconclusive: 35.5 µM [inhibitor, single point]"}, {"smiles": "COc1ccc(NC(=S)N2CCN(C)CC2)cc1", "Potency": "inconclusive: 5.62 µM [activator, single point]"}, {"smiles": "O=C(CSCc1ccc(F)cc1)Nc1ccccc1C(=O)N1CCOCC1", "Potency": "inconclusive: 0.158 µM [activator, full curve, poor fit]"}, {"smiles": "COC(=O)Nc1nnc(-c2ccncc2)s1", "Potency": "inactive"}, {"smiles": "O=C(NC1=C(Cl)CCCC1)NC1CCCCC1Cl", "note": "(centres undefined)", "Potency": "inactive"}, {"smiles": "Cc1ccc(S(=O)(=O)N(C)c2ccc(C(=O)Nc3ccc(C)cn3)cc2)cc1", "Potency": "inconclusive: 11.2 µM [inhibitor, partial curve, poor fit]"}, {"smiles": "O=C(CCc1nnc2ccc(N3CCCCC3)nn12)NCC1CCN(Cc2ccc(F)cc2)CC1", "Potency": "inconclusive: 35.5 µM [inhibitor, single point]"}, {"smiles": "CCC(=O)N1CCN(c2ccc(NC(=O)c3cc4ccccc4o3)cc2Cl)CC1", "Potency": "active: 11.2 µM"}, {"smiles": "COC1CC(C)NC(=S)N1", "note": "(centres undefined)", "Potency": "inconclusive: 3.16 µM [inhibitor, single point]"}, {"smiles": "O=C(CN1CCCC1)Nc1c2c(cc3c1CCC3)CCC2", "Potency": "inconclusive: 6.31 µM [inhibitor, partial curve, poor fit]"}, {"smiles": "C=Cc1ccc(Cn2nc(-c3ccc(C)cc3)ccc2=O)cc1", "Potency": "inconclusive: 35.5 µM [inhibitor, single point]"}, {"smiles": "COc1ccc(OC)c(C(c2nnnn2CCc2ccccc2)N2CCN(c3ccccc3)CC2)c1", "note": "(centres undefined)", "Potency": "inconclusive: 12.6 µM [inhibitor, partial curve, poor fit]"}, {"smiles": "O=C(Nc1ccc(C(=O)N2CCCCC2)cc1)c1ccccc1", "Potency": "inconclusive: 7.91 µM [activator, full curve]"}]}]}
